Data from article PMC8979962.
No constants are given. Whether binding was seen depends on the method and setting. Binding seen in cells or lysates may run through a third protein. Some results given as binding are weak or reduced against the parent protein; the word gives no strength. For some assays here: Tags and fused reporters may be left off the sequences shown.

How the values were obtained:
[1] = molecular target: MCM7 (human (endogenous in NPCs)), P33993; experiment: co-IP; IP analysis in NPCs transfected with increasing concentrations of the circKIF18A lentivirus; which protein was precipitated is not told; conditions: remark: other sources report otherwise
Myc-MCM7, P33993 = experiment: co-IP; IP analysis in HEK-293T cells transfected with plasmids encoding circKIF18A, Myc-MCM7 or HA-UBE3A; which protein was precipitated is not told; conditions: remark: other sources report otherwise

Binder	binding [1]	binding (Myc-MCM7, P33993)
ubiquitin ligase E3A (UBE3A), Q05086 1-875 (enzyme) MEKLHQCYWKSGEPQSDDIEASRMKRAAAKHLIERYYHQLTEGCGNEACTNEFCASCPTFLRMDNNAAAIKALELYKINAKLCDPHPSKKGASSAYLENSKGAPNNSCSEIKMNKKGARIDFKDVTYLTEEKVYEILELCREREDYSPLIRVIGRVFSSAEALVQSFRKVKQHTKEELKSLQAKDEDKDEDEKEKAACSAAAMEEDSEASSSRIGDSSQGDNNLQKLGPDDVSVDIDAIRRVYTRLLSNEKIETAFLNALVYLSPNVECDLTYHNVYSRDPNYLNLFIIVMENRNLHSPEYLEMALPLFCKAMSKLPLAAQGKLIRLWSKYNADQIRRMMETFQQLITYKVISNEFNSRNLVNDDDAIVAASKCLKMVYYANVVGGEVDTNHNEEDDEEPIPESSELTLQELLGEERRNKKGPRVDPLETELGVKTLDCRKPLIPFEEFINEPLNEVLEMDKDYTFFKVETENKFSFMTCPFILNAVTKNLGLYYDNRIRMYSERRITVLYSLVQGQQLNPYLRLKVRRDHIIDDALVRLEMIAMENPADLKKQLYVEFEGEQGVDEGGVSKEFFQLVVEEIFNPDIGMFTYDESTKLFWFNPSSFETEGQFTLIGIVLGLAIYNNCILDVHFPMVVYRKLMGKKGTFRDLGDSHPVLYQSLKDLLEYEGNVEDDMMITFQISQTDLFGNPMMYDLKENGDKIPITNENRKEFVNLYSDYILNKSVEKQFKAFRRGFHMVTNESPLKYLFRPEEIELLICGSRNLDFQALEETTEYDGGYTRDSVLIREFWEIVHSFTDEQKRLFLQFTTGTDRAPVGGLGKLKMIIAKNGPDTERLPTSHTCFNVLLLPEYSSKEKLKERLLKAITYAKGFGML	binds	–
HA-UBE3A, Q05086 1-875 (enzyme) MEKLHQCYWKSGEPQSDDIEASRMKRAAAKHLIERYYHQLTEGCGNEACTNEFCASCPTFLRMDNNAAAIKALELYKINAKLCDPHPSKKGASSAYLENSKGAPNNSCSEIKMNKKGARIDFKDVTYLTEEKVYEILELCREREDYSPLIRVIGRVFSSAEALVQSFRKVKQHTKEELKSLQAKDEDKDEDEKEKAACSAAAMEEDSEASSSRIGDSSQGDNNLQKLGPDDVSVDIDAIRRVYTRLLSNEKIETAFLNALVYLSPNVECDLTYHNVYSRDPNYLNLFIIVMENRNLHSPEYLEMALPLFCKAMSKLPLAAQGKLIRLWSKYNADQIRRMMETFQQLITYKVISNEFNSRNLVNDDDAIVAASKCLKMVYYANVVGGEVDTNHNEEDDEEPIPESSELTLQELLGEERRNKKGPRVDPLETELGVKTLDCRKPLIPFEEFINEPLNEVLEMDKDYTFFKVETENKFSFMTCPFILNAVTKNLGLYYDNRIRMYSERRITVLYSLVQGQQLNPYLRLKVRRDHIIDDALVRLEMIAMENPADLKKQLYVEFEGEQGVDEGGVSKEFFQLVVEEIFNPDIGMFTYDESTKLFWFNPSSFETEGQFTLIGIVLGLAIYNNCILDVHFPMVVYRKLMGKKGTFRDLGDSHPVLYQSLKDLLEYEGNVEDDMMITFQISQTDLFGNPMMYDLKENGDKIPITNENRKEFVNLYSDYILNKSVEKQFKAFRRGFHMVTNESPLKYLFRPEEIELLICGSRNLDFQALEETTEYDGGYTRDSVLIREFWEIVHSFTDEQKRLFLQFTTGTDRAPVGGLGKLKMIIAKNGPDTERLPTSHTCFNVLLLPEYSSKEKLKERLLKAITYAKGFGML	–	binds
